Experimental data: PubChem BioAssay AID652272 (Drosophila RNAi Screening Center, 2013)
Purpose: 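Genes whose knock-down decreases or increases Hedgehog reporter output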 (primary screen). Cells: Drosophila clone 8 (Cl8) cells. Reagent: long dsRNA against Drosophila genes. Read-out: 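Firefly light from a Hedgehog-responsive ptc promoter reporter and Renilla reference light, both read on a plate reader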. Reading the numbers: firefly Hh reporter signal: higher = more ptc reporter light; Renilla reference signal: higher = more Renilla control light. Active means: 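Hit when the z-score averaged over two replicates is under -2 or over +3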. Calls: active = hit: reporter lowered or raised; inactive = not a hit.
The screen tested about 21,000 reagents; shown is an unselected part of those that have a named target and a result. In the full data, 503 (2.4%) are marked active. 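Raw plate light values, not normalised; calls rest on replicate z-scores that were not deposited; hits include reporter decreases as well as increases.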 Reagents against one gene are numbered here. No sequences are given here. Not given: the amount of reagent, the time to read-out.

gene knocked down | dsRNA no. | firefly Hh reporter signal, replicate 1 | firefly Hh reporter signal, replicate 2 | firefly Hh reporter signal, replicate 3 | Renilla reference signal, replicate 1 | Renilla reference signal, replicate 2 | outcome
unc-13-4A | 1 | 63782 | 69163 | – | 7885 | 4886 | inactive
unc-13-4A | 2 | 37835 | 56843 | – | 5155 | 4421 | inactive
unc-13-4A | 3 | 15056 | 9558 | – | 2673 | 1095 | active
unc-13-4A | 4 | 36897 | 48912 | – | 4392 | 3699 | inactive
CG13744 | 1 | 1.09e5 | 65718 | – | 2976 | 6043 | inactive
CG42490 (retired record) | 1 | 1.22e5 | 2.90e5 | – | 3386 | 12576 | inactive
CR14033 (pseudo) | 1 | 94371 | 68442 | – | 4613 | 2935 | inactive
Lrrk (Leucine-rich repeat kinase) | 1 | 7.61e5 | 7.46e5 | 1.50e5 | 42980 | 5522 | inactive
Scp2 (Sarcoplasmic calcium-binding protein 2) | 1 | 28675 | 2.33e5 | – | 4496 | 5140 | inactive
Scp2 (Sarcoplasmic calcium-binding protein 2) | 2 | 89628 | 1.05e5 | – | 2776 | 2876 | inactive
PolD2 (DNA polymerase delta subunit 2) | 1 | 1.02e5 | 70428 | – | 4725 | 3248 | inactive
dl (dorsal) | 1 | 79605 | 51811 | – | 3834 | 2037 | inactive
dl (dorsal) | 2 | 1.07e5 | 71408 | – | 2517 | 5421 | inactive
CG7966 | 1 | 1.15e5 | 82716 | – | 4155 | 3389 | inactive
Galphas (G protein alpha subunit s) | 1 | 74297 | 58789 | – | 4604 | 3559 | active
CG34164 | 1 | 93927 | 62113 | – | 2261 | 5040 | inactive
pix (pixie) | 1 | 15913 | 31569 | – | 3554 | 2951 | inactive
CG31915 | 1 | 57483 | 50560 | – | 1239 | 4603 | inactive
Neb-cGP | 1 | 1.28e5 | 2.94e5 | – | 3897 | 12081 | inactive
CG18048 | 1 | 64570 | 92921 | – | 2272 | 2784 | inactive
Syx13 (Syntaxin 13) | 1 | 44077 | 40186 | 52192 | 3942 | 3076 | inactive
CG12766 | 1 | 1.06e5 | 54538 | – | 4070 | 5456 | inactive
alphaSnap (alpha Soluble NSF attachment protein) | 1 | 43441 | 38960 | – | 2407 | 2520 | active
CG8012 | 1 | 46033 | 94864 | – | 2753 | 7092 | inactive
CG7406 | 1 | 62860 | 1.97e5 | – | 1639 | 9244 | inactive
CG8306 | 1 | 1.03e5 | 64992 | – | 5845 | 3051 | inactive
Bfc (Booster for Crq) | 1 | 1.19e5 | 57888 | – | 3651 | 4657 | inactive
CG7227 | 1 | 1.27e5 | 73585 | – | 4378 | 3440 | inactive
Mfap1 (Microfibril-associated protein 1) | 1 | 55072 | 45923 | – | 3691 | 2821 | active
CG4691 | 1 | 83984 | 56304 | – | 3654 | 2530 | inactive
CG12438 | 1 | 81040 | 51984 | – | 1589 | 4677 | inactive
AttB (Attacin-B) | 1 | 57387 | 69692 | – | 1457 | 4164 | inactive
CG3734 | 1 | 5.28e5 | 44972 | – | 27850 | 1303 | inactive
Afti (Aftiphilin) | 1 | 1.20e5 | 58102 | – | 4560 | 2360 | inactive
Mondo | 1 | 1.14e5 | 80184 | – | 4779 | 3372 | inactive
Mondo | 2 | 88765 | 49008 | – | 2365 | 4299 | inactive
Tsp29Fa (Tetraspanin 29Fa) | 1 | 87587 | 56672 | – | 2642 | 5721 | inactive
CR13656 (pseudo) | 1 | 44754 | 2.16e5 | – | 11289 | 4496 | inactive
CR13656 (pseudo) | 2 | 4.99e5 | 99767 | – | 27210 | 3286 | inactive

6 neighbouring records from above, for reference:
gene knocked down | dsRNA no. | firefly Hh reporter signal, replicate 1 | firefly Hh reporter signal, replicate 2 | firefly Hh reporter signal, replicate 3 | Renilla reference signal, replicate 1 | Renilla reference signal, replicate 2 | outcome
alphaSnap (alpha Soluble NSF attachment protein) | 1 | 43441 | 38960 | – | 2407 | 2520 | active
CG8012 | 1 | 46033 | 94864 | – | 2753 | 7092 | inactive
CG7406 | 1 | 62860 | 1.97e5 | – | 1639 | 9244 | inactive
CG8306 | 1 | 1.03e5 | 64992 | – | 5845 | 3051 | inactive
Bfc (Booster for Crq) | 1 | 1.19e5 | 57888 | – | 3651 | 4657 | inactive
CG7227 | 1 | 1.27e5 | 73585 | – | 4378 | 3440 | inactive
